Source: publication PMC6720506

Tests used:
GST-BrTCP21 [1] = assay: competition with a labelled probe; details: molar excess of unlabeled WT probe eliminated the complex; EMSA: binding buffer (composition not stated), 25 min at 30 °C, 6% native PAGE, biotin chemiluminescence; pH and salt not given; recombinant protein; protein details: N-terminal GST (pGEX-4T-1); label: 5' biotin (labeled probe), unlabeled as competitor
GST-BrTCP21 [2] = assay: EMSA; details: EMSA: binding buffer (composition not stated), 25 min at 30 °C, 6% native PAGE, biotin chemiluminescence; pH and salt not given; recombinant protein; protein details: N-terminal GST (pGEX-4T-1); label: 5' biotin (labeled probe), unlabeled as competitor
GST = GST (UniProt P08515); assay: EMSA; details: EMSA: binding buffer (composition not stated), 25 min at 30 °C, 6% native PAGE, biotin chemiluminescence; pH and salt not given; recombinant protein; protein details: GST only; label: 5' biotin (labeled probe), unlabeled as competitor

Sequence: GGCATTGTTATCTTTGTGATGGGCCCCACAAAGCCCAAGATAGCTTTTCC (double strand) [BrGA20ox3 promoter WT probe]
- binding result (GST-BrTCP21 [1]): binds
- binding result (GST-BrTCP21 [2]): binds
- binding result (GST): no binding

For at least one entry, the source does not settle the construct or the ends of the probe. For part of these data: A negative result means that nothing was seen under these conditions.
